Our source for the activity, negative = inhibition values is PubChem BioAssay AID720708 (National Center for Advancing Translational Sciences (NCATS), 2013).

Protein sequences, listed by entry. Tags and fused reporters are not part of them. Lines headed by an entry give the natural chain unless they say otherwise; changes in a name come on top.
UniProt Q8WZA2: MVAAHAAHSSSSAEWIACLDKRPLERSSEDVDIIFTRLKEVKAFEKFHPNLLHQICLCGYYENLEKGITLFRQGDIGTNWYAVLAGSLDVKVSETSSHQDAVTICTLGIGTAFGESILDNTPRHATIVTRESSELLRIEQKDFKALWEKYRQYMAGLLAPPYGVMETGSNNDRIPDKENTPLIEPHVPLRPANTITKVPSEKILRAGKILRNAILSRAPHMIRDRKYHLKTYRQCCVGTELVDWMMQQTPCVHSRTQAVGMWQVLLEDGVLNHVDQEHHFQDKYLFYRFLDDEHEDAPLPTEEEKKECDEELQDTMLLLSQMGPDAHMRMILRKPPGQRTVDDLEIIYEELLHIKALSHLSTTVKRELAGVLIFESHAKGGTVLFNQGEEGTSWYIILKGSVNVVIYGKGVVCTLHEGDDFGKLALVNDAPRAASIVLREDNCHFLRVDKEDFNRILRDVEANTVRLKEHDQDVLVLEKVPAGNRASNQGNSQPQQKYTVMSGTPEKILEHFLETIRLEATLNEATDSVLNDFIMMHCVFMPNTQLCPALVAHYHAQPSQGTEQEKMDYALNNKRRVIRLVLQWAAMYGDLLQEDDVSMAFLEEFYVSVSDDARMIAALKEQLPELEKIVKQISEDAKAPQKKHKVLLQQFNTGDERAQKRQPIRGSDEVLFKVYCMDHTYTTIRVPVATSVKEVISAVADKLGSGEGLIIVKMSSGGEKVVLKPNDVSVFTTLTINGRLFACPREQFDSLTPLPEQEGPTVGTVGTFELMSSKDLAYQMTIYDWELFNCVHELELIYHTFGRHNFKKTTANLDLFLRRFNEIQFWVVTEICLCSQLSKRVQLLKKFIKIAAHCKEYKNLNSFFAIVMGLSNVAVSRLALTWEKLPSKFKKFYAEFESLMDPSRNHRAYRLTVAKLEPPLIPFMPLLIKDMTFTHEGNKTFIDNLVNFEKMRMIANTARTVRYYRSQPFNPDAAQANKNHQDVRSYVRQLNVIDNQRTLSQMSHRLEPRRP

Molecules are shown by their SMILES. The hits were mostly taken out for another list; the other results follow. Active and inactive are the calls of the source. Calls follow the shape of the dose curve; as a rule, active = well fitted inhibition curve with a large enough effect; inconclusive = small, poorly fitted or top-dose-only effect; inactive = no such curve, though single readings can be large or run the other way.
% is scaled to controls: 0 for no effect and ±100 for the full control effect.

The assay concerns the target Rap guanine nucleotide exchange factor 4 (Homo sapiens) (UniProt Q8WZA2). Briefly: qHTS for Antagonist of cAMP-regulated guanine nucleotide exchange factor 2 (EPAC2): primary screen. Also: nearly all actives have a fitted effect of over 45% in size. Conditions: EPAC2 GEF exchange of Rap1B-BODIPY-GDP, fluorescence; at 114 µM (top of the series). From the text: In multi-cellular eukaryotic organisms, the effects of cAMP are transduced by two ubiquitously-expressed intracellular cAMP receptors, the classic protein kinase A/cAMP-dependent protein kinase (PKA/cAPK) and the more recently discovered exchange protein directly activated by cAMP/cAMP-regulated guanine nucleotide exchange factor (EPAC/cAMP-GEF). Both PKA and EPAC are ubiquitously expressed in all tissues, and an increase in intracellular cAMP levels will lead to the activation of both PKA and EPAC. […]
This qHTS will be used to screen the Molecular Libraries Small Molecule Repository (MLSMR) as a concentration-titration series using the NCGC unique quantitative screening (qHTS) platform to find inhibitors for EPAC2. […] Inhibitors are identified by monitoring the change in fluorescence signal as the exchanged free BODIPY-GDP has a reduced fluorescence compared to Rap1-bound BODIPY-GDP. […]
Briefly, three uL of reagents (100 nM EPAC2, 250 nM RAP1B-BODIPY-GDP, 50 uM GDP) were dispensed into a 1536-well Greiner black solid-bottom medium binding assay plate. […] The assay plates were read at 5 minute intervals for 30 minutes in the ViewLux plate reader using 480nm excitation and 540nm emission filters. […]
On the technique in general: In qHTS, concentration-response curves come from the screen itself.
`O=C1/C(=C/c2ccncc2)Cc2ccccc21`: the activity, negative = inhibition is inactive: 33.7%.

As for `CN1[C@@H]2CC[C@H]1CC(OC(=O)C(O)c1ccccc1)C2` (some centres not stated), the activity, negative = inhibition is inactive: 34.1%.
